Data: PMC12302952
No constants are given. Whether binding was seen depends on the method and setting. In cells and extracts the contact can be indirect.

Amino acid sequences for entries named in this document (tags omitted). A change or cut given only in a name is not applied to a line headed by its entry. Chains listed by the source or under a name are the forms on record and can include a tag or linker. Residues count along the entry.
EYFP-STIM1 (stromal interaction molecule 1), wild type (Q13586, residues 23-685): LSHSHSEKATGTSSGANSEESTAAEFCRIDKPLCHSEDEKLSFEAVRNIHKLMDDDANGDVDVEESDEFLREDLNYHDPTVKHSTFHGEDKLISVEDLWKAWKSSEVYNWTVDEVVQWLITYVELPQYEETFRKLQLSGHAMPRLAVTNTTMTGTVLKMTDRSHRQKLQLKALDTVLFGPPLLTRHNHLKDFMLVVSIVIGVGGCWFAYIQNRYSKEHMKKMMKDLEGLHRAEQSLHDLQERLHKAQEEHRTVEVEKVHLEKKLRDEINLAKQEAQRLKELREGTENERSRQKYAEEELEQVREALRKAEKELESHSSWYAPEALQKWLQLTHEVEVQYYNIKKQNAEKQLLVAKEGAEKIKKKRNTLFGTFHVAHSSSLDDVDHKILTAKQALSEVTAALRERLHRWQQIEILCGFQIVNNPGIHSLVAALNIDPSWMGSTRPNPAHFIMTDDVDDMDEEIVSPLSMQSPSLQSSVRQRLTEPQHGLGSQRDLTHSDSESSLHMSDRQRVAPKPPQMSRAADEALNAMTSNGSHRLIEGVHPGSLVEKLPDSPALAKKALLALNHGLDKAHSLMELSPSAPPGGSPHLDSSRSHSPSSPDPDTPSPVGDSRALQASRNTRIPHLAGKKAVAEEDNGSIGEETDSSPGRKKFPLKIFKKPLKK
EYFP-STIM1 D76A (constitutively active STIM1 mutant) (Q13586, form named): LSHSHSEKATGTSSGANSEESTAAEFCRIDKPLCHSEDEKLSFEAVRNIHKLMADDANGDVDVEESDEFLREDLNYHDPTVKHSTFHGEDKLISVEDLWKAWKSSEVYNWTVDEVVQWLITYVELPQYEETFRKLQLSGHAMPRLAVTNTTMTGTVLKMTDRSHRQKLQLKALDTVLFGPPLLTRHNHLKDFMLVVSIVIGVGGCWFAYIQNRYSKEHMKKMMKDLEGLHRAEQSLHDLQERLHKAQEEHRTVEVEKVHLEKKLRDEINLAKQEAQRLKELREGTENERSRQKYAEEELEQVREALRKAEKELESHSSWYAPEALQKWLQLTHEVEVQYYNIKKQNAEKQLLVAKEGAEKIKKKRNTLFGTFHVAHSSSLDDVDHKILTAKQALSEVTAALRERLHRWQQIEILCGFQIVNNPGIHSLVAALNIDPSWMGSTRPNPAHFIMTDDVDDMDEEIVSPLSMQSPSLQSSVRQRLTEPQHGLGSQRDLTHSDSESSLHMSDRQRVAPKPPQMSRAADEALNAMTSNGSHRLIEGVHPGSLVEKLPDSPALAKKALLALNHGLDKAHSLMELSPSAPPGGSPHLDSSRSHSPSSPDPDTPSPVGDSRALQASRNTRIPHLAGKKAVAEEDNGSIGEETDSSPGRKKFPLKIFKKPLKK
UniProt Q14573: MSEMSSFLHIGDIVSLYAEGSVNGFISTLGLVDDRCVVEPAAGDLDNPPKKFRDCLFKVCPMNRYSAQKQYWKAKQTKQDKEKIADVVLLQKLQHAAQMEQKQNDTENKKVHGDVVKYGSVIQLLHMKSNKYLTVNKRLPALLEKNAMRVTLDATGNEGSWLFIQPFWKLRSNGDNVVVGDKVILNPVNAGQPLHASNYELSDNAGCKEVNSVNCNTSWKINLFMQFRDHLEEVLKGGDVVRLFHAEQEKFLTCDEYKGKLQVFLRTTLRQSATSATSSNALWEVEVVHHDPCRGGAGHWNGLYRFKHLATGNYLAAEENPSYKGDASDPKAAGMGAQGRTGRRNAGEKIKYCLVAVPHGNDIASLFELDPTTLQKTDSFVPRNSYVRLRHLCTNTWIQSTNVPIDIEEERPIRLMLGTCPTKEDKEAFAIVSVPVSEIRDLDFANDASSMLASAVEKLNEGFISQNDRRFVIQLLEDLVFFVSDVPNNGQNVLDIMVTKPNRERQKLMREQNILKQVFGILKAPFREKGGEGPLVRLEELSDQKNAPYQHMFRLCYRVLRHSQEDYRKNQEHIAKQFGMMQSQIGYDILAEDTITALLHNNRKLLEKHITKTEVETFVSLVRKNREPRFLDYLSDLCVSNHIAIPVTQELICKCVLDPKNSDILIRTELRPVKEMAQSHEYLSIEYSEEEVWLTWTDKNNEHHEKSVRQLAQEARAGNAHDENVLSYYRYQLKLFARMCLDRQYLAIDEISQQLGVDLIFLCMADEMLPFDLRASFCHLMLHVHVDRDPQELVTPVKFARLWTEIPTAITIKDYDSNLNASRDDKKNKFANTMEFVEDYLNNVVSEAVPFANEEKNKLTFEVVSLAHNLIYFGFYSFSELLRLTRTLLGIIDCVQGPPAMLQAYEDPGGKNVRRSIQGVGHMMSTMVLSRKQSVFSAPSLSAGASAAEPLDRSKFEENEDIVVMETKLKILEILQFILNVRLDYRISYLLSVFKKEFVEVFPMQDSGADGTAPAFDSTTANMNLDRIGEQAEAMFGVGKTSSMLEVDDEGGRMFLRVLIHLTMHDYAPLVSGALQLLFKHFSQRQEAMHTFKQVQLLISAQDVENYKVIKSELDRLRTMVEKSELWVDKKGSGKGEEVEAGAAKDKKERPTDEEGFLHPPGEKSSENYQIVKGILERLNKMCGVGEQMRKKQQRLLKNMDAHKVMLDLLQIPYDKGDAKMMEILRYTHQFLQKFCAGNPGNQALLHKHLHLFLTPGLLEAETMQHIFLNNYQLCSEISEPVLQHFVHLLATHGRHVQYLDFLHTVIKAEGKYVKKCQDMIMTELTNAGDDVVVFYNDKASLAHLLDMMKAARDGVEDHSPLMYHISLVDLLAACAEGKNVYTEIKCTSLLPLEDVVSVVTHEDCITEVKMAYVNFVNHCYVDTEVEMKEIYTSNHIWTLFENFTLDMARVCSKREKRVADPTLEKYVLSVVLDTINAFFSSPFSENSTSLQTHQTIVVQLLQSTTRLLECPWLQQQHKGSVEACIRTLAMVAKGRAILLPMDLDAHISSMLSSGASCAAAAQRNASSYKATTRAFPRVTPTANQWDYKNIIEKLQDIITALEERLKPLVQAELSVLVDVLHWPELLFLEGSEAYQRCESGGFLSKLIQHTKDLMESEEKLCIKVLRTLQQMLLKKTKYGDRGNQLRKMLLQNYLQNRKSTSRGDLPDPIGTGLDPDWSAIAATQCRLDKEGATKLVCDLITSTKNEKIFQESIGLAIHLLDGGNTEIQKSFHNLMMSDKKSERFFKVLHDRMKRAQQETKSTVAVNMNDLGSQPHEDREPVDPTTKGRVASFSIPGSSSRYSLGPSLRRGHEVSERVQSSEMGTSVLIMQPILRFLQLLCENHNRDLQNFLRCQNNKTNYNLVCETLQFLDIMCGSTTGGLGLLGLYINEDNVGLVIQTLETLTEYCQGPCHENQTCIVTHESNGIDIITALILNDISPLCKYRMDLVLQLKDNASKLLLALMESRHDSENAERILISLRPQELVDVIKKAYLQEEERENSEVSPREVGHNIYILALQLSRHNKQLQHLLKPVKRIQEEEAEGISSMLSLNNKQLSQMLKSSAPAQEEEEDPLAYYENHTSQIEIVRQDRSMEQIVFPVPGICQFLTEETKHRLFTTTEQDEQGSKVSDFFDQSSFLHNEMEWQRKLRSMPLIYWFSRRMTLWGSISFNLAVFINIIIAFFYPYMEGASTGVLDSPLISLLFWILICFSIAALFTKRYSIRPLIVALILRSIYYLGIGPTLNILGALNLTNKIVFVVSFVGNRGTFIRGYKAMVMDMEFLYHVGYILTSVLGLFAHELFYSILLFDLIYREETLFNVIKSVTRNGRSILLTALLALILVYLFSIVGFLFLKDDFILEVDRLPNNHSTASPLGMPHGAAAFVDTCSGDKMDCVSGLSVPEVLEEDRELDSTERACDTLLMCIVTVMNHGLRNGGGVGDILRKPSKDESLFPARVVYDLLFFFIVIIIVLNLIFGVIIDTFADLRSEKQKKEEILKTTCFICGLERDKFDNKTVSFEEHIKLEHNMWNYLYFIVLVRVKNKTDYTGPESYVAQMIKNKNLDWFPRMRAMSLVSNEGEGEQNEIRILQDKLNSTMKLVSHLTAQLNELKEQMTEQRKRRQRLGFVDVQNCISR

How the values were obtained:
[1] = molecular target: EYFP-STIM1 D76A (constitutively active STIM1 mutant) (human) (UniProt Q13586); assay: co-IP; EYFP-STIM1 (WT or D76A) captured on anti-GFP magnetic beads (ChromoTek GFP-Trap) from lysates of transfected HEK293 S1/S2 dKO cells; lysis buffer 150 mM NaCl, 25 mM Tris-Cl pH 7.6, 10% glycerol, 1 mM EDTA, 0.5% Triton X-100; 1 h on ice; three washes; blots for IP3R-2, IP3R-3 and STIM1
[2] = molecular target: EYFP-STIM1 (stromal interaction molecule 1), wild type (human) (UniProt Q13586); assay: as above

Row | binding [1] | binding [2] | Substance
1 | no binding | no binding | inositol 1,4,5-trisphosphate receptor type 3 (IP3R3) (from UniProt Q14573 1-2671)
2 | no binding | no binding | inositol 1,4,5-trisphosphate receptor type 2 (IP3R2) (from UniProt Q14571 1-2701)
